Laboratory results as given in patent US7582415B2, “Rapid detection of replicating cells” (priority 2001, dated 2009).
For at least one compound, name, drawing or mass did not settle the structure.

System: E. coli MG1655/pLafr I (resistant strain)
Assay: Disk diffusion susceptibility test with autofluorescent microcolony imaging
Type: cell-based
Details: 30 μg tetracycline disk, TSA, 5 hours at 37° C.

Question: For `CN(C)[C@@H]1C(O)=C(C(N)=O)C(=O)[C@@]2(O)C(O)=C3C(=O)c4c(O)cccc4[C@@](C)(O)[C@H]3C[C@@H]12` [tetracycline], which “growth near diffusion disk (zone of inhibition)” value is on record?
Answer: growing close to the diffusion disk
